Structures can show the parent of a compound that is named as a salt. Some of these results come from one statement about several compounds together.
Biological target: T1, recombinant human CB1 receptor (Homo sapiens, UniProt P21554)
T1 construct: expressed in transfected cells
Experiment: Cannabinoid Receptor-1 (CB1) Binding Assay ([3H]CP-55940 displacement)
Description: Binding affinity determination is based on recombinant human CB1 receptor expressed in Chinese Hamster Ovary (CHO) cells (Felder et al, Mol. Pharmacol. 48: 443-450, 1995). Total assay volume is 250 μl (240 μl CB1 receptor membrane solution plus 5 μl test compound solution plus 5 μl [3H]CP-55940 solution). Final concentration of [3H]CP-55940 is 0.6 nM. Binding buffer contains 50 mM Tris-HCl, pH 7.4, 2.5 mM EDTA, 5 mM MgCl2, 0.5 mg/mL fatty acid free bovine serum albumin and protease inhibitors (Cat#P8340, from Sigma). To initiate the binding reaction, 5 μl of radioligand solution is added, the mixture is incubated with gentle shaking on a shaker for 1.5 h at 30° C. The binding is terminated by using 96-well harvester and filtering through GF/C filter presoaked in 0.05% polyethylenimine. The bound radiolabel is quantitated using scintillation counter. Apparent binding affinities for various compounds are calculated from IC50 values (DeBlasi et al., Trends Pharmacol Sci 10: 227-229, 1989).

Amino acid sequences for entries named in this document (tags omitted).
UniProt P21554, whole entry: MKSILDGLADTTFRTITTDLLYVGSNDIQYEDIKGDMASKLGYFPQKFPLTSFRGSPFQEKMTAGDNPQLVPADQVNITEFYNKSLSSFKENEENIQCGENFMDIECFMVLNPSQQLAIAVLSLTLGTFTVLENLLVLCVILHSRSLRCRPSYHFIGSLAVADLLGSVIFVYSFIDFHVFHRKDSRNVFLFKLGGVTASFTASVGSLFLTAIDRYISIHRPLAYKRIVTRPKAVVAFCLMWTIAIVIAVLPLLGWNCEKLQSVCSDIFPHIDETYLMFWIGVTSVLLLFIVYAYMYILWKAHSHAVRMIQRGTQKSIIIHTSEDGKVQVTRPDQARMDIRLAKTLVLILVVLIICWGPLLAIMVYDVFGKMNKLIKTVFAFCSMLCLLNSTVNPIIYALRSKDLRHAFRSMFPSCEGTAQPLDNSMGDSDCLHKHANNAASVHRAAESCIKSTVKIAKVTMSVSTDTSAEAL

IC50, < 1 µM:
C[C@H](O)C(=O)Nc1c(C(=O)C(C)(C)C)oc2nc(-c3ccc(-c4cn[nH]c4)cc3Cl)c(-c3ccc(Cl)cc3)cc12 [Example 14, (2S)-N-[5-(4-Chlorophenyl)-6-[2-chloro-4-(1H-pyrazol-4-yl)phenyl]-2-(2,2-dimethylpropanoyl)furo[2,3-b]pyridin-3-yl]-2-hydroxypropanamide]
CC(C)(O)C(=O)c1oc2nc(-c3ccc(-c4cc[nH]n4)cc3Cl)c(-c3ccc(Cl)cc3)cc2c1N [Example 21, 1-{3-Amino-5-(4-chlorophenyl)-6-[2-chloro-4-(1H-pyrazol-3-yl)phenyl]furo-[2,3-b]pyridin-2-yl}-2-hydroxy-2-methylpropan-1-one]
CCC(=O)c1oc2nc(-c3ccc(-c4cn[nH]c4)cc3Cl)c(-c3ccc(Cl)cc3)cc2c1NC(=O)CO [Example 17, N-{5-(4-Chlorophenyl)-6-[2-chloro-4-(1H-pyrazol-4-yl)phenyl]-2-propionylfuro[2,3-b]pyridin-3-yl}-2-hydroxyacetamidetrifluoroacetate (salt)]
Cc1c(S(=O)(=O)C(C)(C)C)oc2nc(-c3ccc(-c4cc[nH]n4)cc3Cl)c(-c3ccc(Cl)cc3)cc12 [Example 24, 2-(Tert-butylsulfonyl)-5-(4-chlorophenyl)-6-[2-chloro-4-(1H-pyrazol-3-yl)phenyl]-3-methylfuro[2,3-b]pyridine]
Cc1c(C(=O)C(C)(C)O)oc2nc(-c3ccc(-c4cn[nH]c4)cc3Cl)c(-c3ccc(Cl)cc3)cc12 [Example 9, 1-{5-(4-Chlorophenyl)-6-[2-chloro-4-(1H-pyrazol-4-yl)phenyl]-3-methylfuro[2,3-b]pyridin-2-yl}-2-hydroxy-2-methylpropan-1-one]
Cc1c(C(=O)C(C)(C)C)oc2nc(-c3ccc(-c4ncon4)cc3Cl)c(-c3ccc(Cl)cc3)cc12 [Example 42, 1-[6-[2-Chloro-4-(1,2,4-oxadiazol-3-yl)phenyl]-5-(4-chlorophenyl)-3-methylfuro[2,3-b]pyridin-2-yl]-2,2-dimethylpropan-1-one]
CC(=O)Nc1c(C(=O)C(C)C)oc2nc(-c3ccc(-c4cc[nH]n4)cc3Cl)c(-c3ccc(Cl)cc3)cc12 [Example 2, N-{5-(4-Chlorophenyl)-6-[2-chloro-4-(1H-pyrazol-3-yl)phenyl]-2-isobutyrylfuro[2,3-b]pyridin-3-yl}acetamide]
Cc1n[nH]cc1-c1ccc(-c2nc3oc(C(=O)C(C)C)c(N4CCCC4=O)c3cc2-c2ccc(Cl)cc2)c(Cl)c1 [Example 39, 1-[6-[2-Chloro-4-(3-methyl-1H-pyrazol-4-yl)phenyl]-5-(4-chlorophenyl)-2-isobutyrylfuro[2,3-b]pyridin-3-yl]pyrrolidin-2-one]
CC(C)(C)C(=O)c1oc2nc(-c3ccc(-c4ncon4)cc3Cl)c(-c3ccc(Cl)cc3)cc2c1NC(=O)CO [Example 43, N-[6-[2-Chloro-4-(1,2,4-oxadiazol-3-yl)phenyl]-5-(4-chlorophenyl)-2-(2,2-dimethylpropanoyl)furo[2,3-b]pyridin-3-yl]-2-hydroxyacetamide]
CC(C)(C)C(=O)c1oc2nc(-c3ccc(-c4cn[nH]c4)cc3Cl)c(-c3ccc(Cl)cc3)cc2c1NC(=O)CO [Example 32, N-[5-(4-Chlorophenyl)-6-[2-chloro-4-(1H-pyrazol-4-yl)phenyl]-2-(2,2-dimethylpropanoyl)furo[2,3-b]pyridin-3-yl]-2-hydroxyacetamide]
Cc1n[nH]cc1-c1ccc(-c2nc3oc(C(=O)C(C)(C)O)c(C)c3cc2-c2ccc(Cl)cc2)c(Cl)c1 [Example 34, 1-[6-[2-Chloro-4-(3-methyl-1H-pyrazol-4-yl)phenyl]-5-(4-chlorophenyl)-3-methylfuro[2,3-b]pyridin-2-yl]-2-hydroxy-2-methylpropan-1-one]
CC(C)(C)C(=O)c1oc2nc(-c3ccc(-c4cc[nH]n4)cc3Cl)c(-c3ccc(Cl)cc3)cc2c1NC(=O)CO [Example 27, N-[5-(4-Chlorophenyl)-6-[2-chloro-4-(3H-pyrazol-5-yl)phenyl]-2-(2,2-dimethyl-propanoyl)furo[2,3-b]pyridin-3-yl]-2-hydroxyacetamide]
Cc1n[nH]cc1-c1ccc(-c2nc3oc(C(=O)C(C)(C)C)c(CO)c3cc2-c2ccc(Cl)cc2)c(Cl)c1 [Example 37, 1-[6-[2-Chloro-4-(3-methyl-1H-pyrazol-4-yl)phenyl]-5-(4-chlorophenyl)-3-(hydroxymethyl)furo[2,3-b]pyridin-2-yl]-2,2-dimethylpropan-1-one]
CC(=O)Nc1c(C(=O)C(C)(C)C)oc2nc(-c3ccc(-c4cc[nH]n4)cc3Cl)c(-c3ccc(Cl)cc3)cc12 [Example 19, N-[5-(4-Chlorophenyl)-6-[2-chloro-4-(1H-pyrazol-3-yl)phenyl]-2-(2,2-dimethylpropanoyl)furo[2,3-b]pyridin-3-yl]acetamide]
CC(C)(O)C(=O)c1oc2nc(-c3ccc(-c4cn[nH]c4)cc3Cl)c(-c3ccc(Cl)cc3)cc2c1NC(=O)CO [Example 31, N-[5-(4-Chlorophenyl)-6-[2-chloro-4-(1H-pyrazol-4-yl)phenyl]-2-(2-hydroxy-2-methylpropanoyl)-furo[2,3-b]pyridin-3-yl]-2-hydroxyacetamide]
CC(=O)c1c(C(=O)C(C)C)oc2nc(-c3ccc(-c4c[nH]nc4C)cc3Cl)c(-c3ccc(Cl)cc3)cc12 [Example 38, 1-[3-Acetyl-6-[2-chloro-4-(3-methyl-1H-pyrazol-4-yl)phenyl]-5-(4-chlorophenyl)furo[2,3-b]pyridin-2-yl]-2-methylpropan-1-one]
CCC(=O)c1oc2nc(-c3ccc(-c4cn[nH]c4)cc3Cl)c(-c3ccc(Cl)cc3)cc2c1NC(=O)[C@H](C)O [Example 15, (2S)-N-{5-(4-Chlorophenyl)-6-[2-chloro-4-(1H-pyrazol-4-yl)phenyl]-2-propionylfuro[2,3-b]pyridin-3-yl}-2-hydroxypropanamide]
CCC(=O)c1oc2nc(-c3ccc(-c4cn[nH]c4)cc3Cl)c(-c3ccc(Cl)cc3)cc2c1N [Example 8, 1-{3-Amino-5-(4-chlorophenyl)-6-[2-chloro-4-(1H-pyrazol-4-yl)phenyl]furo[2,3-b]pyridin-2-yl}propan-1-one]
Cc1c(S(=O)(=O)C(C)(C)C)oc2nc(-c3ccc(-c4cn[nH]c4)cc3Cl)c(-c3ccc(Cl)cc3)cc12 [Example 11, 2-(Tert-butylsulfonyl)-5-(4-chlorophenyl)-6-[2-chloro-4-(1H-pyrazol-4-yl)phenyl]-3-methylfuro[2,3-b]pyridine]
CC(C)(C)C(=O)c1oc2nc(-c3ccc(-c4cn[nH]c4)cc3Cl)c(-c3ccc(Cl)cc3)cc2c1N [Example 7, 1-{3-Amino-5-(4-chlorophenyl)-6-[2-chloro-4-(1H-pyrazol-4-yl)phenyl]furo[2,3-b]pyridin-2-yl}-2,2-dimethylpropan-1-one]
CC(C)(C)C(=O)c1oc2nc(-c3ccc(-c4cn[nH]c4)cc3Cl)c(-c3ccc(Cl)cc3)cc2c1NC(=O)C(C)(C)O [Example 16, N-[5-(4-Chlorophenyl)-6-[2-chloro-4-(1H-pyrazol-4-yl)phenyl]-2-(2,2-dimethylpropanoyl)furo[2,3-b]pyridin-3-yl]-2-hydroxy-2-methylpropanamide]
Cc1c(C(=O)C(C)C)oc2nc(-c3ccc(-c4cc[nH]n4)cc3Cl)c(-c3ccc(Cl)cc3)cc12 [Example 25, 1-{5-(4-Chlorophenyl)-6-[2-chloro-4-(1H-pyrazol-3-yl)phenyl]-3-methylfuro[2,3-b]pyridin-2-yl}-2-methylpropan-1-one]
CC(=O)Nc1c(C(=O)C(C)(C)O)oc2nc(-c3ccc(-c4cn[nH]c4)cc3Cl)c(-c3ccc(Cl)cc3)cc12 [Example 1, N-[5-(4-Chlorophenyl)-6-[2-chloro-4-(1H-pyrazol-4-yl)phenyl]-2-(2-hydroxy-2-methylpropanoyl)furo[2,3-b]pyridin-3-yl]acetamide]
CCc1c(C(=O)C(C)(C)O)oc2nc(-c3ccc(-c4c[nH]nc4C)cc3Cl)c(-c3ccc(Cl)cc3)cc12 [Example 35, 1-[6-[2-Chloro-4-(3-methyl-1H-pyrazol-4-yl)phenyl]-5-(4-chlorophenyl)-3-ethylfuro[2,3-b]pyridin-2-yl]-2-hydroxy-2-methylpropan-1-one]
Cc1n[nH]cc1-c1ccc(-c2nc3oc(C(=O)C(C)(C)C)c(C(N)=O)c3cc2-c2ccc(Cl)cc2)c(Cl)c1 [Example 3, 6-[2-chloro-4-(3-methyl-1H-pyrazol-4-yl)phenyl]-5-(4-chlorophenyl)-2-(2,2-dimethylpropanoyl)furo[2,3-b]pyridine-3-carboxamide]
Cc1c(C(=O)C(C)(C)C)oc2nc(-c3ccc(-c4cn[nH]c4)cc3Cl)c(-c3ccc(Cl)cc3)cc12 [Example 10, 1-{5-(4-Chlorophenyl)-6-[2-chloro-4-(1H-pyrazol-4-yl)phenyl]-3-methylfuro[2,3-b]pyridin-2-yl}-2,2-dimethylpropan-1-one]
CC(C)C(=O)c1oc2nc(-c3ccc(-c4cc[nH]n4)cc3Cl)c(-c3ccc(Cl)cc3)cc2c1N1CCCC1=O [Example 28, 1-{5-(4-Chlorophenyl)-6-[2-chloro-4-(1H-pyrazol-3-yl)phenyl]-2-isobutyrylfuro[2,3-b]pyridin-3-yl}pyrrolidin-2-one]

— patent US20080269279A1, “Substituted furo[2,3-B] pyridine derivatives as cannabinoid-1 receptor modulators” (priority 2007, published 2008)
